Measurements reported in PubChem BioAssay AID540276 (National Center for Advancing Translational Sciences (NCATS), 2011).
In all, about 300,000 compounds went through this assay and about 5,400 (1.8%) were called active. Inconclusive results, whose numbers are uncertain, are shown with a selection of clear calls. Calls follow the shape of the full dose curve; tested in HEK293 cells. A potency beside an inconclusive call is a rough fit, not a confirmed value.

Assay: qHTS for inhibitors of binding or entry into cells for Marburg Virus
Settings: Marburg virus pseudotyped entry inhibition, cell reporter; activity change, negative = inhibition: at 37.8 µM (top of the series) unless noted
% is scaled to controls: 0 for no effect and ±100 for the full control effect; potency is read from the fitted curve at half-maximal effect.

SMILES | activity change, negative = inhibition | Potency
c1ccc(-n2ncc3c(NCc4ccccn4)ncnc32)cc1 | inactive: 6.38% | 
COc1ccccc1NC(=O)Nc1ccccc1C(=O)NCCCN1CCOCC1 |  | inconclusive: 6.31 µM [inhibitor, single point]
CCCCCCCCCCCCCCCC(=O)NC[C@@H](COP(=O)([O-])OCC[N+](C)(C)C)OCC |  | active: 6.51 µM
COc1cc(SC)ccc1C(=O)Nc1ccc2c(c1)OCCO2 |  | inconclusive: 0.259 µM [activator, partial curve, poor fit]
CC1(C)CCCN(C(=O)c2ccc3c(c2NCCO)C(=O)c2ccccc2C3=O)C1 |  | inconclusive: 0.178 µM [inhibitor, full curve]
Cc1nn(-c2ccccc2)c2nc(=O)n(-c3ccccc3)cc12 |  | inconclusive: 14.1 µM [activator, partial curve, poor fit]
COCCOC(=O)C1=C(C)NC(=O)NC1c1ccc(-c2ccc(F)cc2)o1 (stereo not drawn) | inactive: -27.2% [at 46.1 µM] | 
COC(=O)c1cc(NS(=O)(=O)c2ccc3c(c2)c(=O)n(C)c(=O)n3C)cc(C(=O)OC)c1 |  | inconclusive: 0.708 µM [activator, partial curve, poor fit]
CCC(C)NC(=O)C1(C)CCC(=O)N1Cc1ccccc1OC (stereo not drawn) |  | inconclusive: 6.51 µM [activator, full curve, poor fit]
COC(=O)c1cn(NC(=O)c2cc(OC)c(OC)c(OC)c2)c(=O)c2ccccc12 | inactive: -23.5% | 
COc1cc2c(cc1OC)C1CC(=O)C(CC(C)C)CN1CC2 (stereo not drawn) |  | inconclusive: 0.501 µM [inhibitor, partial curve, poor fit]
Cc1ccccc1OCC(=O)OCC(=O)NC1CC1 |  | inconclusive: 4.47 µM [activator, full curve, poor fit]
CCc1n[n+](CC(=O)c2ccccc2)c(N)s1 |  | inconclusive: 7.94 µM [inhibitor, partial curve, poor fit]
O=C(O)c1ncn(Cc2ccccc2)c1C(=O)O |  | inconclusive: 0.259 µM [activator, full curve, poor fit]
COC(=O)c1cccc(NC(=O)NC(=O)c2ccc(Cl)cc2)c1 |  | inconclusive: 0.891 µM [inhibitor, full curve, poor fit]
Cc1ccc(C)c(CN2CCC(CNC(=O)Nc3ccc(C)c(C)c3)CC2)c1 |  | inconclusive: 3.16 µM [inhibitor, partial curve, poor fit]
COc1ccc(CCNc2ncccc2C#N)cc1OC |  | inconclusive: 11.2 µM [activator, partial curve, poor fit]
CCOC(=O)c1c(NC(=O)/C=C/C(=O)O)sc(C)c1-c1ccc(C(C)(C)C)cc1 |  | active: 10 µM
O=C(Nc1nccs1)C1CCN(S(=O)(=O)c2cccs2)CC1 | inactive: -23.1% | 
COc1ccccc1NC(=O)Nc1nc(CC(=O)N2CCN(c3ccccc3F)CC2)cs1 |  | inconclusive: 11.2 µM [inhibitor, partial curve, poor fit]
Cc1sc(NC(=O)C2CCCCC2C(=O)O)c(C(N)=O)c1-c1ccccc1 (stereo not drawn) |  | inconclusive: 20 µM [inhibitor, partial curve, poor fit]
CCc1cccc(C)c1NC(=O)Cn1c(=O)n(-c2ccc(C)cc2)c(=O)c2c1cnn2C | inactive: 25.5% [at 46.1 µM] | 

One compound at a time, from the list above:
`COC(=O)c1cc(NS(=O)(=O)c2ccc3c(c2)c(=O)n(C)c(=O)n3C)cc(C(=O)OC)c1` as listed: Potency: inconclusive: 0.708 µM [activator, partial curve, poor fit]
`CCc1cccc(C)c1NC(=O)Cn1c(=O)n(-c2ccc(C)cc2)c(=O)c2c1cnn2C` as listed: activity change, negative = inhibition: inactive: 25.5% [at 46.1 µM]

Remaining list, next part.

SMILES | activity change, negative = inhibition | Potency
COc1cc2c(cc1OC)C(=Cc1ccc(N(C)C)cc1)C=C2 | inactive: 19.5% [at 46.1 µM] | 
CCOC(=O)CN1C2=NCCN2c2ccccc21 | inactive: 2.62% | 
COc1ccc(NC(=O)c2ccc(NC(=O)c3ccncc3)cc2)cc1 | inactive: 24.4% [at 46.1 µM] | 
Cc1ccc(C(=O)NC(=S)Nc2cccnc2Cl)cc1 |  | inconclusive: 14.1 µM [inhibitor, single point]
COC(=O)c1ccc(NC(=O)c2cc(Cl)ccc2OC)cc1 |  | inconclusive: 3.55 µM [inhibitor, single point]
CC(C)c1ccc(NC(=O)Nc2cnccn2)cc1 |  | inconclusive: 10 µM [inhibitor, partial curve]
NNC(=O)CN1C(c2ccc(Cl)cc2)=Nc2ccc(Br)cc2C1c1ccccc1 (stereo not drawn) |  | inconclusive: 18.3 µM [inhibitor, single point]
CCOC(=O)CC1=C(C(=O)OCC)C(c2cccs2)C(C#N)=C(N)O1 (stereo not drawn) |  | inconclusive: 6.31 µM [inhibitor, single point]
OCC1(Cc2cccc(F)c2)CCN(Cc2cccc3nccnc23)CC1 |  | inconclusive: 31.6 µM [inhibitor, single point]
Cc1cc2nnc(SCC(=O)Nc3cc(S(=O)(=O)N4CCOCC4)ccc3Cl)n2c2ccccc12 |  | active: 7.94 µM
NS(=O)(=O)c1ccc(NC(=O)c2cccc3cc4ccccc4nc23)cc1 |  | inconclusive: 6.31 µM [inhibitor, partial curve, poor fit]
Cc1cc(C)nc(SCC(=O)OCC(=O)Nc2nc3ccccc3s2)n1 | inactive: -10.6% | 
O=C(N/N=C\c1ccc(-c2ccccc2[N+](=O)[O-])o1)C1COc2ccccc2O1 (stereo not drawn) |  | inconclusive: 0.112 µM [activator, full curve, poor fit]
O=[N+]([O-])c1ccc(N2CCCC2)nc1 | inactive: 2.46% [at 46.1 µM] | 
Cc1ccc(Nc2nnc(SCC(=O)NC3CCS(=O)(=O)C3)s2)c(C)c1 (stereo not drawn) |  | inconclusive: 0.251 µM [inhibitor, full curve, poor fit]
Cc1nc(SCC(=O)N2CCCCC2)c2c(C)c(C)sc2n1 |  | inconclusive: 20 µM [inhibitor, partial curve, poor fit]
O=C(/C=C/c1cccc([N+](=O)[O-])c1)c1ccc2c(c1)OCCO2 |  | inconclusive: 31.6 µM [inhibitor, single point]
CCN(N=O)c1ccc(C=C2C=Cc3ccccc32)cc1 |  | inconclusive: 15.8 µM [inhibitor, single point]
NC(=O)c1ccsc1NC(=O)COC(=O)c1cc(Cl)ccc1O | inactive: 7.85% [at 46.1 µM] | 
CCCC1CCC(c2ccc(/C(N)=N/O)cc2)CC1 (stereo not drawn) |  | inconclusive: 35.5 µM [inhibitor, single point]
COc1cc(NC(=O)C2CCCCC2)c(OC)cc1NC(=O)CCC(=O)NCc1ccco1 |  | inconclusive: 16.4 µM [activator, single point]
